From paper PMC6216208 come the findings set out here.

The chains behind the UniProt entries cited, without tags or fusion partners.
UniProt P15056: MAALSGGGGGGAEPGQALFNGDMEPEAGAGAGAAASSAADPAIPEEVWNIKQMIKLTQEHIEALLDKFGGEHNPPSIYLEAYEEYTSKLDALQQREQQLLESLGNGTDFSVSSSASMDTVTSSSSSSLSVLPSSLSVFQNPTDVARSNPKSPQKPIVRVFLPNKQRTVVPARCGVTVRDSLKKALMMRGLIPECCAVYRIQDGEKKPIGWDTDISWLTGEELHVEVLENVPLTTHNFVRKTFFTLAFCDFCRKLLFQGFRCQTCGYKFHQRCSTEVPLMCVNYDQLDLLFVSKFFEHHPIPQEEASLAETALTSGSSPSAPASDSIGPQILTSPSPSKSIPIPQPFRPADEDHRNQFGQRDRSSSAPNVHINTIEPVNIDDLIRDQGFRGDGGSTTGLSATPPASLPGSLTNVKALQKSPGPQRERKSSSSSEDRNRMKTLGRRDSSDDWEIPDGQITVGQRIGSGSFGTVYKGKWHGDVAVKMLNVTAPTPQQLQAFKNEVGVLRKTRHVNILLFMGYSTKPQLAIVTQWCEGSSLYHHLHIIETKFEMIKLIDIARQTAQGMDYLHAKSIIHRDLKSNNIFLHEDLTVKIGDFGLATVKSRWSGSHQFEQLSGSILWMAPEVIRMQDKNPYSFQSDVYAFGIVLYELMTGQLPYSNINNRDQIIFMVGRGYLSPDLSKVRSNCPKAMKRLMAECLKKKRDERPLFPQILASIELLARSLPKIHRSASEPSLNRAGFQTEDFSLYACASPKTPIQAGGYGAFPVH

This test addresses T1, c-Myc-tagged Rit2 (protein product of the Ras-like without CAAX 2 gene, RIT2) (human) (UniProt Q99578).
T1 sequence: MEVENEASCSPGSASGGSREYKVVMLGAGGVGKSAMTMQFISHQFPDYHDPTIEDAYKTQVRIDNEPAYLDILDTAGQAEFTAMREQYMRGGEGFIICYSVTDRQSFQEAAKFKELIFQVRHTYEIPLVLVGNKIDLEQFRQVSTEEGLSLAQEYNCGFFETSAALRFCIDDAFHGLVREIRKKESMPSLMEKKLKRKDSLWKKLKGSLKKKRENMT
Put plainly: co-IP; HEK293T cells transiently transfected with c-Myc-Rit2 and/or V5-B-Raf, lysed after 48 h in RIPA buffer with protease and phosphatase inhibitors; lysates incubated with anti-c-Myc or anti-V5 antibody-conjugated agarose beads, washed five times, immunoblot.

These are yes or no findings as the source states them, for the method shown. Binding seen in cells or lysates may run through a third protein. Some entries that bind do so weakly or less than the wild type. Sequences can lack the tags named with a protein.

Regarding “V5-tagged B-Raf (from UniProt P15056 1-766)”, the binding result is listed as “binds”.
